No constants are given. Whether binding was seen depends on the method and setting. For some of these results: Binding seen in cells or lysates may run through a third protein. Some results given as binding are weak or reduced against the parent protein; the word gives no strength. For some of these results: Where a sequence is shown, tags or fusion partners need not be part of it.

For assay [1], the target named is T1, HA-tagged PEAK3FL-S69A (human) (UniProt Q6ZS72).
T1 sequence: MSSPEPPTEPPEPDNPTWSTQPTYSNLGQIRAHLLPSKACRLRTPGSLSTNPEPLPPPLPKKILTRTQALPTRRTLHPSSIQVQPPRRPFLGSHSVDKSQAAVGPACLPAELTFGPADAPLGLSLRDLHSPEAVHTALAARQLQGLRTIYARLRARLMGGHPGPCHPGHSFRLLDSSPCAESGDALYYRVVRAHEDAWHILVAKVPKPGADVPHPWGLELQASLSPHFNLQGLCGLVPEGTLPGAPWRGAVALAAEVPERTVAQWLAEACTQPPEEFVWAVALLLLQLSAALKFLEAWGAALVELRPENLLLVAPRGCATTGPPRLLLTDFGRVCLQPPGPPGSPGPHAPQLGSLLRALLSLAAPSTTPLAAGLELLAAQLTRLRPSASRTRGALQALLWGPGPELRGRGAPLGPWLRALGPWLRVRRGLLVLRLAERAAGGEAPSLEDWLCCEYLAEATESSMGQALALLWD
As to the kind of experiment: co-IP; anti-HA agarose IP from lysates of HEK293 cells expressing HA-PEAK3FL WT or mutants (alone or with Flag-PEAK3FL WT), Western blot. A general note: In western blotting, separated proteins are transferred to a membrane and probed.

In assay [2] the target is T1, HA-tagged PEAK3FL-S69A (human). As to the kind of experiment: co-IP; HEK293 cells transfected with HA-PEAK3^FL forms (alone or with Flag-PEAK3^FL WT), lysates on anti-HA agarose at 4 °C overnight, Western blot.
The target in assay [3] is T2, PEAK2IDR1 (PEAK2 residues 802-1406) (human) (UniProt Q86YV5).
T2 sequence (chain, phosphorylated at the tandem site 14-3-3 motif (RAASSP) by LC MS/MS): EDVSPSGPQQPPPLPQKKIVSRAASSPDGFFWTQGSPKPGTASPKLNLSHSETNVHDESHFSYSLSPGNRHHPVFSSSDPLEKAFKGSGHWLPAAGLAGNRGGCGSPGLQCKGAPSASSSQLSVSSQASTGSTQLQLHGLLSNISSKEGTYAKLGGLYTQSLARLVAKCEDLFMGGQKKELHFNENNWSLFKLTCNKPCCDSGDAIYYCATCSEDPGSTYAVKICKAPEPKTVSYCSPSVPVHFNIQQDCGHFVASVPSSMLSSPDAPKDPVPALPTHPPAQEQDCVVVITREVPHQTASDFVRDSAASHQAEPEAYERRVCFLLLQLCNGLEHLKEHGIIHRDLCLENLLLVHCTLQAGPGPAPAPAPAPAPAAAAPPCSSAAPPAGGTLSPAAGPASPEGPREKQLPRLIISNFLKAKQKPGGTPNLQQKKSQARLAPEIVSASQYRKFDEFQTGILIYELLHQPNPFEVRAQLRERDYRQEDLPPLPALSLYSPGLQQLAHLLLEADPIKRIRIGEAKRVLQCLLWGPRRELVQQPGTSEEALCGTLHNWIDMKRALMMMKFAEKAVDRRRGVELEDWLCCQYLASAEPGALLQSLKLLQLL
As to the kind of experiment: SEC-MALS; Superdex 200 Increase 10/300 GL, 20 mM HEPES pH 7.5, 150 mM NaCl, 1 mM TCEP, 0.5 ml/min; both purified. A general note: SEC sorts molecules by how far they enter the pores of the column.

Assay [4] addresses T3, PEAK1IDR1 (PEAK1 residues 1082-1746) (human) (UniProt Q9H792).
T3 sequence: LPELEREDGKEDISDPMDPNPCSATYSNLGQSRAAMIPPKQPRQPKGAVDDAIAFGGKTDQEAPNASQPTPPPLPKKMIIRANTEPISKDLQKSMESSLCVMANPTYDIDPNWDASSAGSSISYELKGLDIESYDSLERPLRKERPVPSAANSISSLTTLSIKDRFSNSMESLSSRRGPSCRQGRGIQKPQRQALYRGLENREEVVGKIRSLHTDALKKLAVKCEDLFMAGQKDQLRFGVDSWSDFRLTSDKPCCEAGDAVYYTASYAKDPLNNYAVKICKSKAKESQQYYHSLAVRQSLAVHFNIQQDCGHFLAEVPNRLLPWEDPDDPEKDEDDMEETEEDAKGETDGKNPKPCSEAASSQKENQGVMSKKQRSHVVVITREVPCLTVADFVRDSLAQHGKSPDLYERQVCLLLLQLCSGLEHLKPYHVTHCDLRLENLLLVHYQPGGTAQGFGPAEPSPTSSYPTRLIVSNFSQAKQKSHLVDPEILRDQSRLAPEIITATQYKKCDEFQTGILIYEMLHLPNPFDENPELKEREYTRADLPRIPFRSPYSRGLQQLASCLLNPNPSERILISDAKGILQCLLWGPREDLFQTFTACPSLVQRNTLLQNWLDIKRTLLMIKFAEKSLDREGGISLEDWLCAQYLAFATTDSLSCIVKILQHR
As to the kind of experiment: SEC; Superdex 200 Increase 10/300, PEAK1IDR1 with CrkIIFL dimer at 1:1.3 molar ratio, pre-equilibrated 25 min at room temperature; SDS-PAGE of eluted fractions; both purified.

Consider “endogenous CrkII (HEK293) (from UniProt P46108-1 1-304)”, for which the binding result in assay [1] and in assay [2] was “binds” throughout.
Take “full length CrkII, dimer (CrkIIFL dimer) (from UniProt P46108-1 1-304)”: the binding result in assay [3] and in assay [4] was “binds” each time.

For the origin of these results see paper PMC10279719.
